Measurements taken from patent publication US20180244777A1 (NUMAB THERAPEUTICS, published 2018).
These are yes or no findings as the source states them, for the method shown. Some results given as binding are weak or reduced against the parent protein; the word gives no strength.

These binders were tested against HumanCD3 target sequence (SEQ ID NO: 46), as library of overlapping linear and CLIPS peptides (human) (assay: CLIPS and linear peptide library ELISA).

| binding | Binder |
| --- | --- |
| binds | clone-02 (antibody, V domains shown, Recombinant rabbit IgG; also called Clone 2) VH: QSLEESGGRLVTPGTPLTLTCTVSGFPLSAYAMIWVRQAPGKGLEWIGMIIRSGTVYYANWAKGRFTISKTSTTVDLKITSPTTEDTATYFCARRHYNADGYPIGIGDLWGPGTLVTVSS VL: AQVLTQTPSSVSAVVGGTVTISCQSSESVYSNNRLSWFQQKPGQPPKLLIYSASTLASGVPSRFKGSGSGTQFTLTITDLECDDAATYFCQGEFSCSSVDCFSFGGGTEVVVKG |
| binds | clone-03 (antibody, V domains shown, Recombinant rabbit IgG; also called Clone 3) VH: QSLEESGGRLVTPGTPLTLTCTVSGFPLNRYAMLWVRQAPGKGLEWIGLITRADKKYYASWAKGRFTISKTSTTVDLEITGPTTEDTATYFCARRHYNTDGYPIAIGDLWGPGTLVTVSS VL: AQVLTQTPSSVSAAVGGTVTISCQSNENIYSNNRLSWFQQKPGQPPNQLIYSASSLASGVPSRFKGSGSGTQFTLTISDLECDDAATYYCQGEFNCNSADCFTFGGGTEVVVKG |
| binds | clone-06 (antibody, V domains shown, Recombinant rabbit IgG; also called Clone 6) VH: QSVEESGGRLVTPGTPLTLTCTVSGFPLSSYAMIWVRQAPGKGLEWIGMILRAGNIYYASWVKGRVTISKTSTTVDLKITSPTTEDTATYFCARRHYNREGYPIGIGDLWGPGTLVTVSS VL: AQVLTQTPSSVSAAVGGTVTISCQSSESVYNNKRLSWFQQKPGQPPKQLIYTASSLASGVPSRFKGSGSGTQFTLTISDLECDDAATYYCQGEFTCSNADCFTFGGGTEVVVKG |
| binds | clone-04 (antibody, V domains shown, Recombinant rabbit IgG; also called Clone 4) VH: QSLEESGGRLVKPDETLTLTCTVSGFPLSSYAMGWFRQAPGKGLEWIGMILRSDNTYYASWAKGRFTISKTSTTVDLKITSPTTEDTATYFCARRHYNASGNPIAIGDLWGPGTLVTVSS VL: AQVLTQTPSSVSAAVGGTVTINCQSSQSVYNNNRLSWFQQKPGQPPKLLIYTTSSLASGVPSRFKGSGSGTEFTLTISDLECADAATYYCQGEFSCSRADCFNFGGGTEVVVKG |
